Measured data: PubChem BioAssay AID743454 (Peter MacCallum Cancer Centre, 2014)
Purpose: 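Knock-downs lowering viability or raising caspase 3/7 activity in vorinostat-treated resistant cells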 (primary screen). System: human HCT116-VR colon cancer cells, selected for vorinostat resistance. Knock-down reagent: siRNA pool against human genes, 40 nM siRNA pool. Duration: vorinostat for 24 h, read-out about 72 h after transfection. Treatment: vorinostat at 2.5 µM final. Read-out: 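Two measures, CellTiter-Fluor viability and luminescent caspase 3/7 activity, each as fold change against same-plate mock wells, mean of duplicates, then screen-wide robust z-score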. Reading the numbers: viability robust z-score: higher = more viable cells than screen typical; caspase robust z-score: higher = more caspase 3/7 activity than screen typical. Hit rule: 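a knock-down is a hit when classed RV1 or RV2 for lowered viability, or CA1 or CA2 for caspase activation; those lethal without drug were dropped; hits were retested singly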.
This is one part, drawn at random, of about 18,000 deposited reagents. Over the whole deposit, 450 (2.5%) got an active call. 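Single biological run; no consistent viability z cut-off exists, so the class columns, not z-scores, define the calls.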

| Target gene | viability hit class | caspase hit class | viability robust z-score | caspase robust z-score | activity call |
| --- | --- | --- | --- | --- | --- |
| SDCBP | no change | no change | 0.36 | -0.79 | inactive |
| ELFN2 | no change | no change | -1.6 | 4.78 | inactive |
| APOH | no change | no change | 0.04 | -0.68 | inactive |
| EDDM3A | no change | no change | 0.96 | -0.57 | inactive |
| NME9 | no change | no change | -0.88 | 0.18 | inactive |
| RNF125 | no change | no change | -0.8 | 0.9 | inactive |
| TMUB1 | no change | no change | -0.72 | 4.25 | inactive |
| CSTF2T | no change | no change | -0.44 | 1.9 | inactive |
| ITPKA | no change | no change | -0.03 | 0.28 | inactive |
| DDB1 | no change | no change | -0.29 | -0.47 | inactive |
| PACSIN2 | no change | no change | -0.08 | 0.73 | inactive |
| CELA1 | no change | no change | -0.43 | -0.12 | inactive |
| PBX2 | no change | no change | 0.72 | 0.03 | inactive |
| NUDT10 | RV2 (reduced viability) | no change | -3.05 | 1.02 | active |
| ADAMTS4 | no change | no change | 0.25 | -0.62 | inactive |
| C2CD2 | no change | no change | 0.87 | 1.52 | inactive |
| MIR1-1HG | no change | no change | -1.03 | -0.76 | inactive |
| PHKA1 | no change | no change | 0.66 | -0.29 | inactive |
| FREY1 | no change | no change | 0.56 | 0.38 | inactive |
| RBMS2 | no change | no change | 0.2 | 0.09 | inactive |
| ABI2 | no change | no change | 1.12 | -0.06 | inactive |
| DYM | no change | no change | 0.86 | 0.88 | inactive |
| INTS6 | no change | CA1 (caspase activation) | -0.08 | 9.39 | active |
| ANKRD37 | no change | no change | -0.1 | -1.12 | inactive |
| SLC35A2 | no change | no change | 0.19 | 2.38 | inactive |
| DHRS4L1 | no change | no change | 1.36 | -0.02 | inactive |
| SURF6 | no change | no change | -0.96 | 3.84 | inactive |
| HRCT1 | no change | no change | 1.46 | 0.82 | inactive |
| SOSTDC1 | no change | no change | 0.05 | 0.11 | inactive |
| TRIM71 | no change | CA1 (caspase activation) | 0 | 6 | active |
| PTPRM | no change | no change | -1.02 | -0.2 | inactive |
| THOP1 | no change | no change | -0.24 | -0.05 | inactive |
| BTBD17 | no change | no change | -0.98 | 0.29 | inactive |
| MLLT6 | no change | no change | -1.49 | 1.27 | inactive |
| PILRB | no change | no change | -0.3 | 0.19 | inactive |
| CXCR3 | no change | no change | -0.29 | 0.52 | inactive |
| AFP | no change | no change | 1.3 | 1.3 | inactive |
| H4C11 | no change | no change | 0.66 | 0.25 | inactive |
| IL17A | no change | no change | -2.91 | 1.64 | inactive |

Entries above whose target name starts with C or c (4):
| Target gene | viability hit class | caspase hit class | viability robust z-score | caspase robust z-score | activity call |
| --- | --- | --- | --- | --- | --- |
| CSTF2T | no change | no change | -0.44 | 1.9 | inactive |
| CELA1 | no change | no change | -0.43 | -0.12 | inactive |
| C2CD2 | no change | no change | 0.87 | 1.52 | inactive |
| CXCR3 | no change | no change | -0.29 | 0.52 | inactive |
